# Laboratory results taken from US12516015B2 (AMALIVE LIMITED, priority 2009, dated 2026).
# Like-named read-outs stand apart in the source and are kept apart here.
# Details: Evaporation
compound,measurement,setting,value
NCCC[C@H](N)C(=O)O.O=C(O)Cc1ccccc1 [L-ornithine phenyl acetate],Results (crystalline form),"Test 4, cyclohexanone",Form V
same,Results (crystalline form),"Test 15, ethanol/acetone (50:50)",Form II
same,Results (crystalline form),"Test 26, acetic acid",Form II
same,Results (crystalline form),"Test 37, 1-propanol",Form II
same,Results (crystalline form),"Test 48, dimethylcarbonate",Form II
same,Results (crystalline form),"Test 59, NMP",Form II
same,Results (crystalline form),"Test 70, etOAc/cyclohexane (1:2)",Form II
same,Results (crystalline form),"Test 81, etOAc/toluene (1:2)",Form II
same,Results (crystalline form),"Test 92, IPA/diisopropyl ether (1:2)",Form II
same,Results (crystalline form),"Test 103, DIPE",Form II
same,Results (crystalline form),"Test 114, nitromethane/water (20%)",Form II
same,Results (crystalline form),"Test 125, acetone/water (20%)",Form II
same,Results (crystalline form),"Test 136, 1,4 dioxane/water (20%)",Form II
same,Results (crystalline form),"Test 147, diethyl ether",Form II
same,Results (crystalline form),"Test 158, ethylene glycol",No Solid
same,Results (crystalline form),"Test 169, meOAc/water (20%)",Form II
same,Results (crystalline form),"Test 180, meOH/acetone (50:50)",Form II
same,Results (crystalline form),"Test 191, DMF",Form II
same,Results (crystalline form of precipitate),"Test 202, solvent 2-butanol",Form II
same,Results (crystalline form of precipitate),"Test 213, solvent cumene",Form II
same,Results (crystalline form of precipitate),"Test 224, solvent ethyl formate",Form II
same,Results (crystalline form of precipitate),"Test 235, solvent isobutyl acetate",No Solid
same,Results (crystalline form of precipitate),"Test 246, solvent 3-methyl-1-butanol",Form II
same,Results (crystalline form of precipitate),"Test 257, solvent anisole",Form II
same,Results (crystalline form of precipitate),"Test 268, solvent IPA/isopropyl acetate (1:2)",Form II
same,Results (crystalline form of precipitate),"Test 279, solvent EtOH: 1% H20",No Solid
same,Results (crystalline form of precipitate),"Test 290, solvent EtOH: 3% H20",No Solid
same,Results (crystalline form of precipitate),"Test 301, solvent EtOH: 5% H20",Form II
same,Results (crystalline form of precipitate),"Test 312, solvent IPA: 1% H20",No Solid
same,Results (crystalline form of precipitate),"Test 323, solvent IPA: 3% H20",No Solid
same,Results (crystalline form of precipitate),"Test 334, solvent IPA: 5% H20",Form II
same,Results (crystalline form of precipitate),"Test 345, solvent ACN: 1% H20",Form II
same,Results (crystalline form of precipitate),"Test 356, solvent ACN: 6% H20",Form II
same,Results (crystalline form of precipitate),"Test 367, solvent ACN: 12% H20",Form II
same,Results (crystalline form of precipitate),"Test 378, solvent DMF: 5% H20",No Solid
same,Results (crystalline form of precipitate),"Test 389, solvent DMF: 15% H20",No Solid
same,Results (crystalline form of precipitate),"Test 400, solvent DMF: 30% H20",Form II
same,Results (crystalline form of precipitate),"Test 411, 1,4-dioxane: 1% H20",No Solid
same,Results (crystalline form of precipitate),"Test 422, 1,4-dioxane: 3% H20",Form II
same,Results (crystalline form of precipitate),"Test 433, 1,4-dioxane: 10% H20",Form II
same,Results (crystalline form of precipitate),"Test 444, MeOH: 5% H20",Form II
same,Results (crystalline form of precipitate),"Test 455, MeOH: 20% H20",Form II
same,Results (crystalline form of precipitate),"Test 466, MeOH: 50% H20",No Solid
same,Results (crystalline form of precipitate),"Test 477, THF: 1% H20",Form II
same,Results (crystalline form of precipitate),"Test 488, THF: 3% H20",No Solid
same,Results (crystalline form of precipitate),"Test 499, THF: 5% H20",Form II
same,Results (crystalline form of precipitate),"Test 510, butan-1-ol: 1% H20",Form II
same,Results (crystalline form of precipitate),"Test 521, butan-1-ol: 3% H20",Form II
same,Results (crystalline form of precipitate),"Test 532, butan-1-ol: 5% H20",Form II
same,Results (crystalline form of precipitate),"Test 541, 1,4-dioxane",Form I/II
same,Results (crystalline form of precipitate),"Test 544, 1-butanol",Form I/II
same,Results (crystalline form of precipitate),"Test 547, ethanol",Form II
same,Results (crystalline form of precipitate),"Test 550, acetone",Form II
same,Results (crystalline form of precipitate),"Test 553, benzonitrile",Form II
same,Results (crystalline form of precipitate),"Test 556, cyclohexane",Form II
same,Results (crystalline form of precipitate),"Test 559, DCM",Form II
same,Results (crystalline form of precipitate),"Test 562, DMSO",Form II/II
same,Results (crystalline form of precipitate),"Test 565, EtOAc",Form II
same,Results (crystalline form of precipitate),"Test 568, Heptane",Form I/II
same,Results (crystalline form of precipitate),"Test 571, IPA",Form I/II
same,Results (crystalline form of precipitate),"Test 574, IPA: Water (1%)",Form II
same,Results (crystalline form of precipitate),"Test 577, MeCN",Form II
same,Results (crystalline form of precipitate),"Test 580, MeCN: Water (1%)",Form I/II
same,Results (crystalline form of precipitate),"Test 583, MEK",Form I/II
same,Results (crystalline form of precipitate),"Test 586, MeOAc",Form II
same,Results (crystalline form of precipitate),"Test 589, MeOH",Form I/II
same,Results (crystalline form of precipitate),"Test 592, MIBK",Form II
same,Results (crystalline form of precipitate),"Test 595, Nitromethane",Form II
same,Results (crystalline form of precipitate),"Test 598, TBME",Form II
same,Results (crystalline form of precipitate),"Test 601, THF",Form II
same,Results (crystalline form of precipitate),"Test 604, THF: water (1%)",Form I/II
same,Results (crystalline form of precipitate),"Test 607, toluene",Form II
same,Results (crystalline form of precipitate),"Test 610, water",Form I/II
